Test results: US20130136743A1 (LABORATOIRE FRANCAIS DU FRACTIONNEMENT ET DES …, published 2013)
Changes are numbered by the printed parent chain. No constants are given. Whether binding was seen depends on the method and setting. Some entries that bind do so weakly or less than the wild type. For some assays here: Where a sequence is shown, tags or fusion partners need not be part of it. Values belong to the binder of their own block, whether it stands above or below them.

Columns and labels:
AMHR-II human receptor = biological target: T1, AMHR-II human receptor (human, UniProt Q16671 18-573, limits assumed); assay: comment on the affinity determinations
T1 sequence (looked up): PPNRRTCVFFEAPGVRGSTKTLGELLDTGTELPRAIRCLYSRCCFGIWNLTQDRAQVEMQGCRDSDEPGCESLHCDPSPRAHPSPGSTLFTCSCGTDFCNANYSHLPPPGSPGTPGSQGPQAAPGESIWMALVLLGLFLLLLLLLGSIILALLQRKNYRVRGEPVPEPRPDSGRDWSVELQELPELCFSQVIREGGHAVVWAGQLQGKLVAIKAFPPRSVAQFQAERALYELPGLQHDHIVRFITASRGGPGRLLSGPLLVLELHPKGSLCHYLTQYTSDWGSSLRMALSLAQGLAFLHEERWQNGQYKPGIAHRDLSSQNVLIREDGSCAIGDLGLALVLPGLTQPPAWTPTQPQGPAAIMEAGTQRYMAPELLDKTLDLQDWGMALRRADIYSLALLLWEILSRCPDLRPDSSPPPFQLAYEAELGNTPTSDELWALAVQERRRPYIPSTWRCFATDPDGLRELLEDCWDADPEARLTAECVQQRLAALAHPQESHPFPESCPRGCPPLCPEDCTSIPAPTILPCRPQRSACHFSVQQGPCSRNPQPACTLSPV

[1] = biological target: T2, AMHR-II/Fc fusion protein (human, UniProt Q16671 18-149, limits assumed); assay: ELISA with soluble Fab (FIG. 17)
T2 construct: also called AMHR-II recombinant receptor expressed in the form of fusion protein with a region Fc; recombinant target; not shown: Fc region
T2 sequence (looked up): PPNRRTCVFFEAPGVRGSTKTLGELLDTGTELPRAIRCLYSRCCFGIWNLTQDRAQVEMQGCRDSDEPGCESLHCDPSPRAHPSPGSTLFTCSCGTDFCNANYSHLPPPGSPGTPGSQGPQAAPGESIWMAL

[2] = biological target: T2, AMHR-II/Fc fusion protein; assay: ELISA, soluble Fab titrated in twofold steps (5.000 to 0.078 µg/ml) on the AMHR-II receptor, OD at 450 nm

binding (AMHR-II human receptor): binds
B1: murine 12G4 monoclonal antibody (antibody, V domains shown)
VH: QVQLQQSGPELVKPGASVRMSCKASGYTFTSYHIHWVKQRPGQGLEWIGWIYPGDDSTKYNEKFKGKTTLTADKSSSTAYMLLSSLTSEDSAIYFCTRGDRFAYWGQGTLVTVSA
VL: QIVLTQSPAIMSASLGEGITLTCSASSSVRYIHWYQQKSGTSPKLLIYSTSNLASGVPSRFSGSGSGTFHSLTISSVEAEDAADYYCLQWSSYPWTFGGGTKLEIK
notes: also called mLFB112; original murine 12G4 antibody

binding (AMHR-II human receptor): binds
B5: unmutated humanized 12G4 monoclonal antibody (antibody, human IgG1, kappa, V domains shown)
VH: QVQLVQSGAEVKKPGASVKVSCKASGYTFTSYHIHWVRQAPGQRLEWMGWIYPGDDSTKYSQKFQGRVTITRDTSASTAYMELSSLRSEDTAVYYCTRGDRFAYWGQGTLVTVSS
VL: DIQMTQSPSTLSASVGDRVTITCRASSSVRYIAWYQQKPGKAPKLLIYSTSSLESGVPSRFSGSGSGTEFTLTISSLQPDDFATYYCLQWSSYPWTFGGGTKVEIKR
notes: Variable regions without leader joined to the constant regions; also called huLFB112; 632 07 107 Anti AMHRII hum 1st

Further lines, the binder ahead of its results:

B2: 6B-78 soluble Fab (Fab, V domains shown)
VH: B5 VH
VL: DIQMTQSPSTLSASVGDRVTITCRASSSVRYIAWYQQKPGKAPKLLIYSTSSLKSGVPSRFSGSGSGTEFTLTISSLQPDDFATYYCLQWSSYPWTFGGGTKVEIK
binding [1]: binds
binding [2]: binds

B3: 3C-23 soluble Fab (Fab, V domains shown)
VH: B5 VH with Q3R
VL: B2 VL with I47T, S49P, K54E
binding [1]: binds
binding [2]: binds

B4: 3C-23K soluble Fab (Fab, V domains shown)
VH: B5 VH with Q3R
VL: B2 VL with I47T, S49P
binding [1]: binds
binding [2]: binds
